Values of other authors in patent US20080312336A1, “Preventive and/or Therapeutic Agent for Diabetic Vascular Disorder and Respiratory Disorder” (priority 2005, published 2008).

Test system: rat isolated trachea
Conditions: normal rats compared with diabetic rats; cited from earlier work

Structure (SMILES): NCCCC(=O)O [GABA, γ-aminobutyric acid]
- contraction-inhibitory effect, normal versus diabetic rats: significantly high in normal rats
